Results are given in words; binding and its absence hold for the method and conditions named. Some results given as binding are weak or reduced against the parent protein; the word gives no strength. Tags and fused reporters may be left off the sequences shown.
Target: T1, ICOSL
T1 sequence: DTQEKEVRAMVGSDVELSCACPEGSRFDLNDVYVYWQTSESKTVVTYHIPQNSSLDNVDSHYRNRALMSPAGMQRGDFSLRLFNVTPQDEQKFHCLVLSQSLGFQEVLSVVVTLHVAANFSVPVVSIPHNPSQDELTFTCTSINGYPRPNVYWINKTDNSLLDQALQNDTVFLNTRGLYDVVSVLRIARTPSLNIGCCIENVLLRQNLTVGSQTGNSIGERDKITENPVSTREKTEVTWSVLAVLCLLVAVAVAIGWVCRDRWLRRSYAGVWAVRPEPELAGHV
Test: flow cytometry of cynomolgus whole blood, DyLight 650 labeled cynoICOS-Fc on viable CD3- CD20+ B cells, MFI normalised to vehicle at each time point; used by the filing to measure ICOSL expression

B1: cynomolgus ICOS-Fc (homodimeric, bivalent) (Fc fusion, not shown: a dimerising Fc or GST)
chain: EINGSANYEMFIFHNGGVQILCKYPDIVQQFKMQLLKGGQILCDLTKTKGSGNKVSIKSLKFCHSQLSNNSVSFFLYNLDRSHANYYFCNLSIFDPPPFKVTLTGGYLHIYESQLCCQLK
For B1, the binding was “binds”.

— patent US20160304610A1 (JOUNCE THERAPEUTICS, published 2016)
